Holding throughout (test): cryo-EM structure
The target of test [1] is Tektin-3 (bovine (endogenous in bovine sperm)) (UniProt A6H782).
Test [2] concerns the target T1, Tektin-2 (bovine (endogenous in bovine sperm)) (UniProt Q2T9Q6).
T1 sequence: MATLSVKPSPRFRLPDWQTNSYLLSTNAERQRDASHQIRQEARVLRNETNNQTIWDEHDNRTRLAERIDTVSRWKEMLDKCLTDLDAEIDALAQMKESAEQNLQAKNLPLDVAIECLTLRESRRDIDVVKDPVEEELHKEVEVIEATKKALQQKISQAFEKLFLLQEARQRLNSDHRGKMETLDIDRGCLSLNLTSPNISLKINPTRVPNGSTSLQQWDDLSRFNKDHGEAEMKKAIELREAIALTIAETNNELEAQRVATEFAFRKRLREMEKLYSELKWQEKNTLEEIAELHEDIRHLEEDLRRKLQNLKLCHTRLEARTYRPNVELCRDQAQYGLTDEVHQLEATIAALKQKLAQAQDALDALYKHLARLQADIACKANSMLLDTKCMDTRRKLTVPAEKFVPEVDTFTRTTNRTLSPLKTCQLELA

Chains of the proteins cited; added tags and fusions are not shown.
UniProt A6H782: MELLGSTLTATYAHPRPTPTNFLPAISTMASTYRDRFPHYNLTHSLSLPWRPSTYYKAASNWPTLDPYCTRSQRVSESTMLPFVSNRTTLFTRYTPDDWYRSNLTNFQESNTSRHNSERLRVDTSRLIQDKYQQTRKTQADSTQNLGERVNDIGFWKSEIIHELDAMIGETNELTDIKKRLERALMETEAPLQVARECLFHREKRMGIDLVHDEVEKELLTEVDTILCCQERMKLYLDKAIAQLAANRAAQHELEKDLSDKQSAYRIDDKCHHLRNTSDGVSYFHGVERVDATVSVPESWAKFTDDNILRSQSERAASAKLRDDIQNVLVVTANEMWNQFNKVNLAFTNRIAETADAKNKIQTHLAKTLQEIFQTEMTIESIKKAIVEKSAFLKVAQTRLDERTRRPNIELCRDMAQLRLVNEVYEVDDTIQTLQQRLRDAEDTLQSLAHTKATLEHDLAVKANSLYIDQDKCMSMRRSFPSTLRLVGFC
UniProt Q3MHM5: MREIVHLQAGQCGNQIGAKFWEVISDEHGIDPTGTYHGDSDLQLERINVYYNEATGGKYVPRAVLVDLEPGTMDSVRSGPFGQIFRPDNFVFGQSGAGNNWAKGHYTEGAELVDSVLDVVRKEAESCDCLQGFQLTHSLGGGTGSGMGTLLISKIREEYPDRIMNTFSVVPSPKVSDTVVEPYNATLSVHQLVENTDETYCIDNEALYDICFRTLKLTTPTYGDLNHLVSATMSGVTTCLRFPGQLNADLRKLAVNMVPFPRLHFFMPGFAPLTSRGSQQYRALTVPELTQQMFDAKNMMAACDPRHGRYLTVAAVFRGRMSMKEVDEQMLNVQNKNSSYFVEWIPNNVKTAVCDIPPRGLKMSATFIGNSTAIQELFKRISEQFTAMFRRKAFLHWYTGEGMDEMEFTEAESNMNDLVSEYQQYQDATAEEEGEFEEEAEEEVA

Test [3] addresses T2, Tektin-5 (bovine (endogenous in bovine sperm)) (UniProt Q2YDI7).
T2 sequence: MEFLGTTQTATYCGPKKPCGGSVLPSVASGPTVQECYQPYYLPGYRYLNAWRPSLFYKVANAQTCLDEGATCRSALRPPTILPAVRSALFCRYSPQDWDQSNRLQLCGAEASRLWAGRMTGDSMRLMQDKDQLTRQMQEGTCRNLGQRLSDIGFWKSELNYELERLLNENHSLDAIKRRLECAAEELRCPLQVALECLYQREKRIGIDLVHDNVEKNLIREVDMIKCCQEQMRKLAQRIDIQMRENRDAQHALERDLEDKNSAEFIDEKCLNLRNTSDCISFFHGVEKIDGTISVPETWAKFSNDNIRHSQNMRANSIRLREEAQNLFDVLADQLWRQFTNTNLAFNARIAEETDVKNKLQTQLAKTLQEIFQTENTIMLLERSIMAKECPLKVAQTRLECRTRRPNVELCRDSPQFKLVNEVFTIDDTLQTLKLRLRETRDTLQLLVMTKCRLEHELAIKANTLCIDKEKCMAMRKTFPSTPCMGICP

The target of test [4] is β-tubulin (TUBB4B) (bovine (endogenous in bovine sperm)) (UniProt Q3MHM5).

No constants are given. Whether binding was seen depends on the method and setting. Some binding calls cover weakened binding; strength is not graded here.

B1: DUSP21 (protein, UniProt F6QJZ9 1-196)
chain: MTTPLCPFPIQAVRQPAAHGLSQITKSLYLSDAVAAKDKAMLSTNHITTVINVSMEATDTFLEDIQYVKVPLADAPNSRLYDFFDFIADHIHSVEMKQGRTLLHCAAGVSRSATFCLAYLMKYHSMSLLDAHTWTKSCRPTIRPNNGFWEQLIYYEFKLFSKNTVHMISSSMGMIPDVYEKEICLMTLMGVIPDSS
As for B1, the binding result in test [1] and in test [2] was “binds” in each case.

B2: Tektin-2 (protein, UniProt Q2T9Q6 1-430)
chain: T1 sequence
For the molecule B2, the binding entry in test [1] and in test [3] was “binds” throughout.

B3: ENKUR (protein, UniProt E1B836 1-259)
chain: MVAMDPTGPSESIYNLIPSDWKEPPQPPRYVSIFKATVKDDMQKFKTAMKTMGPAKLEVPSPKDFLKKHSKEKILPPKKKFEWNERRKPPVPLRTDHPVMGIQSEKNFINTNAADVIMGVAKKPKPIYVDKRTGDKHDLETSGLVPKYINKKDYGVTPEYICKRNEEVKKAQEEYDNYIQENLRKAAMKRLSDEEREAVLQGLKKNWEEVHKEFQSLSVFIDSIPKKIRKQKLEEEMKQLEHDIGVLEKHKVIYIANKK
As for B3, in test [4], the binding entry is given as “binds”.

For the origin of these results see paper doi:10.1101/2022.09.29.510157.
